Laboratory results reported in doi:10.1101/2023.06.26.546506.
Read-outs that look alike come from different tables or passages of the source. No constants are given. Whether binding was seen depends on the method and setting. In cells and extracts the contact can be indirect. Here binding means that the protein was enriched with, or labelled near, the bait; the list need not be complete.

Protein sequences, listed by entry. Tags and fused reporters are not part of them. Lines headed by an entry give the natural chain unless they say otherwise; changes in a name come on top.
UniProt P01583: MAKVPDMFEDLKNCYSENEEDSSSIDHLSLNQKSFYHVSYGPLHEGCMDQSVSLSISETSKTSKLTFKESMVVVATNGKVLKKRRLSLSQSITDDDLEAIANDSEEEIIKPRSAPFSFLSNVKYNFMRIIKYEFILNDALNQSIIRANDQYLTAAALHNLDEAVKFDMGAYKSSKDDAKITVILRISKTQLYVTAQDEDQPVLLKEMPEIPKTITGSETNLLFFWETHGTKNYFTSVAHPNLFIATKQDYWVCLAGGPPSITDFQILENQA
UniProt Q96L91: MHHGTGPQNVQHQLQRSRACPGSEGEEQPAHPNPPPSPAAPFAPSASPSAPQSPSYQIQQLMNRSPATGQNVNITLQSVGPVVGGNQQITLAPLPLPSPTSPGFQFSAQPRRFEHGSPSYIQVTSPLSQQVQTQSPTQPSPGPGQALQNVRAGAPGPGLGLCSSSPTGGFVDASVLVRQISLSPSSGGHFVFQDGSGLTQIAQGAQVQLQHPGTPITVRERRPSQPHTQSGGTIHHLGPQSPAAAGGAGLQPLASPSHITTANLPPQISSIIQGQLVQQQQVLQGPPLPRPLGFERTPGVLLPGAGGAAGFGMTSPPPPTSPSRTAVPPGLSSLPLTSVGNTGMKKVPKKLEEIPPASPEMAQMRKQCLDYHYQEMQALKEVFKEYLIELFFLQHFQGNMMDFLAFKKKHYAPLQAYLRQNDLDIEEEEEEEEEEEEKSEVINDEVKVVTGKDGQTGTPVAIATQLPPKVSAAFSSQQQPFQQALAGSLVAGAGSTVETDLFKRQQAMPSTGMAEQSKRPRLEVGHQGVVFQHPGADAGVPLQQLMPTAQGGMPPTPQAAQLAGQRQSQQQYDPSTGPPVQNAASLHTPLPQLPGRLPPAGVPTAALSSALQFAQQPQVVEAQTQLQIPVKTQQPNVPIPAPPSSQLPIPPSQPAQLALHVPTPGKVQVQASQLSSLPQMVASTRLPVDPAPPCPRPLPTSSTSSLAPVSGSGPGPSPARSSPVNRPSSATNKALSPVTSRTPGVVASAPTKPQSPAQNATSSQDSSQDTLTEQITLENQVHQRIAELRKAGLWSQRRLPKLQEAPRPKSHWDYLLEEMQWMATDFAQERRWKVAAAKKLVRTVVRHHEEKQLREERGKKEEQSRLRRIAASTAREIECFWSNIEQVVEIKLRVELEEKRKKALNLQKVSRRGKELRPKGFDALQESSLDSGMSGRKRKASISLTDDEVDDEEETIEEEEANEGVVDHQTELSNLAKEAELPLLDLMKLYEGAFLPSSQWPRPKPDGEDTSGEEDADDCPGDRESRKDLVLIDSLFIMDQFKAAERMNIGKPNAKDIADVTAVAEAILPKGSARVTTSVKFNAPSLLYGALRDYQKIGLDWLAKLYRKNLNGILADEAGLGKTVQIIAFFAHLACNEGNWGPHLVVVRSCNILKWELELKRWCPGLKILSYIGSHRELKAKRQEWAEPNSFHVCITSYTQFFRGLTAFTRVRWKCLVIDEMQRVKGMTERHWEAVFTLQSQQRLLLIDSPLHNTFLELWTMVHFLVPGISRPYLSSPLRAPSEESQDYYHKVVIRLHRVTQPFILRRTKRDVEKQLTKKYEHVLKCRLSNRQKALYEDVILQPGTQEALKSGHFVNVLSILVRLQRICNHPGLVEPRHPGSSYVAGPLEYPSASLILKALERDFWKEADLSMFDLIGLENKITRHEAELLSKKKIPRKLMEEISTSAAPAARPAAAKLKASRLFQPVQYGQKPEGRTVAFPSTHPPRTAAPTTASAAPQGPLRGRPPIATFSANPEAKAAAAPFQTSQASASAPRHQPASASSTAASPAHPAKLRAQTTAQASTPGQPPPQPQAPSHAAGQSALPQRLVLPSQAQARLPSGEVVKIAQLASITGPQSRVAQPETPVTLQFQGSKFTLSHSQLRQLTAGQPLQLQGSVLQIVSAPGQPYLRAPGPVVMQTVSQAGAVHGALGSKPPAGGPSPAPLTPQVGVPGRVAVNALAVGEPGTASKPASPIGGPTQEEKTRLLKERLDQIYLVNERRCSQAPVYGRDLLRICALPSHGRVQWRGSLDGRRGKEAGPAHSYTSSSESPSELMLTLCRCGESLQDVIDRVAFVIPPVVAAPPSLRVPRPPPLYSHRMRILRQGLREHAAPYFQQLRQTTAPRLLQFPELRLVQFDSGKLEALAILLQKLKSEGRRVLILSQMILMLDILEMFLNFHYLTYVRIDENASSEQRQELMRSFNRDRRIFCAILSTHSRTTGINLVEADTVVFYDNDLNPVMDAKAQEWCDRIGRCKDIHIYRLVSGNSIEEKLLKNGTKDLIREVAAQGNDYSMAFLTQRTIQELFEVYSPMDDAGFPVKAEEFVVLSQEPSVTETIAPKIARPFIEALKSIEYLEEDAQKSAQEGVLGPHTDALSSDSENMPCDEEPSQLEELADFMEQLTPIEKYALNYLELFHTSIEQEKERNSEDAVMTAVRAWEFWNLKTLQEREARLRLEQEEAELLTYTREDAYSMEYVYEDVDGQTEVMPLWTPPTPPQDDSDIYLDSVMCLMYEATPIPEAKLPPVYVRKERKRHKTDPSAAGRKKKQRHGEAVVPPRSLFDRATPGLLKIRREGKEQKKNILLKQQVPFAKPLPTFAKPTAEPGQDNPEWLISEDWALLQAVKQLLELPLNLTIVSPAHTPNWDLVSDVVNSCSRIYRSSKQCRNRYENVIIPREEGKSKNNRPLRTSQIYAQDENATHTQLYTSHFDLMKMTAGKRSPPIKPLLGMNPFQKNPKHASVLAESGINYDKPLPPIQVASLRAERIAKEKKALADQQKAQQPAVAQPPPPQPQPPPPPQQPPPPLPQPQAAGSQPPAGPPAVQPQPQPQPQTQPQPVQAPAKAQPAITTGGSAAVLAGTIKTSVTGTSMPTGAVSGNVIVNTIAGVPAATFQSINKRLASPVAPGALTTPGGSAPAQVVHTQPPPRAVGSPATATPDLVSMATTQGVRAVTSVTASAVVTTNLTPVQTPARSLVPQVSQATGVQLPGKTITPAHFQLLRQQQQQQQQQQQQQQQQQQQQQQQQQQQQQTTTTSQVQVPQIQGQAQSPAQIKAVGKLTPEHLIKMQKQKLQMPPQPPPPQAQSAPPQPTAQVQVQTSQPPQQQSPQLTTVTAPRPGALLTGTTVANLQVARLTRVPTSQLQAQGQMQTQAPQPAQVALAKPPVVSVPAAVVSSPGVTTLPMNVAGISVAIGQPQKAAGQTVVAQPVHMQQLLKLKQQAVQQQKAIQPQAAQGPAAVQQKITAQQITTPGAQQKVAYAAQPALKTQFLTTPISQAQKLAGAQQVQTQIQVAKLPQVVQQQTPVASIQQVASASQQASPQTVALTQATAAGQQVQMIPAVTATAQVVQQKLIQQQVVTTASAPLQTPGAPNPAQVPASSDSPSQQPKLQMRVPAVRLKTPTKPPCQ
UniProt Q9Y6Q9: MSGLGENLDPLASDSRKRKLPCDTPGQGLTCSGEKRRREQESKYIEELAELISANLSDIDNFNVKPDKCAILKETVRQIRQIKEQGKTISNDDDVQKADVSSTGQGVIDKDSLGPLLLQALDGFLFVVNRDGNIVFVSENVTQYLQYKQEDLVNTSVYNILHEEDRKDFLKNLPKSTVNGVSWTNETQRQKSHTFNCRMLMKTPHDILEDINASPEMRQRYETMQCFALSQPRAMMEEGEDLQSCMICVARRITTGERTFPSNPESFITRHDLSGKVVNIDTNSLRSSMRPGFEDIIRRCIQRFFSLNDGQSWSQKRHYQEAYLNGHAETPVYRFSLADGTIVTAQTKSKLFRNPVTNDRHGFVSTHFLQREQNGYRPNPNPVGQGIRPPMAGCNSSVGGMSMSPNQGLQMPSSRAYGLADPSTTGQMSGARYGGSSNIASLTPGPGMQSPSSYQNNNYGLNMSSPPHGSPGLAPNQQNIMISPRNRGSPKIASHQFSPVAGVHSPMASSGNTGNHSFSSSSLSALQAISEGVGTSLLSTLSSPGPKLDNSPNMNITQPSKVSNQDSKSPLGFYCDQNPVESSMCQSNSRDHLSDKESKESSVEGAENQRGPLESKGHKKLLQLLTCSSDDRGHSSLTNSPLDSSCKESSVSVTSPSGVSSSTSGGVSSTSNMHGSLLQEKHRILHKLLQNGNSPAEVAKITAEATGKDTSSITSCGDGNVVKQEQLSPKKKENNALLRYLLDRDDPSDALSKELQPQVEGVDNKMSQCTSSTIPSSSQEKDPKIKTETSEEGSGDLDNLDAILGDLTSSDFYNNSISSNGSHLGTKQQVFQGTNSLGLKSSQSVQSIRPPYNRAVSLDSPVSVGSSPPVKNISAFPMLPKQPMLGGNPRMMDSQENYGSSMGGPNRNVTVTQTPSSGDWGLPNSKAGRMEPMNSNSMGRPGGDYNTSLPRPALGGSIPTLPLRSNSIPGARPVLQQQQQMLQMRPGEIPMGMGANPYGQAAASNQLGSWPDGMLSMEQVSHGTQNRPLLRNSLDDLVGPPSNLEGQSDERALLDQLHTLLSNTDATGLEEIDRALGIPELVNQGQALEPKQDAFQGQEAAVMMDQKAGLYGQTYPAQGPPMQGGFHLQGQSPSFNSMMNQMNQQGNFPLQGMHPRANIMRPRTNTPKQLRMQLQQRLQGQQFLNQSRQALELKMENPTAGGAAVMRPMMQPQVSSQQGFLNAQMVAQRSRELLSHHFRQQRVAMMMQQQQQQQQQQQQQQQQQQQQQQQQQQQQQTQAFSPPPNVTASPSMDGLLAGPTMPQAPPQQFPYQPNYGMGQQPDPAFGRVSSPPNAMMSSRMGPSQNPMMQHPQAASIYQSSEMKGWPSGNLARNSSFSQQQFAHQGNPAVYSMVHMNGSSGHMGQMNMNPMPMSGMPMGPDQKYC
UniProt Q9H2F5: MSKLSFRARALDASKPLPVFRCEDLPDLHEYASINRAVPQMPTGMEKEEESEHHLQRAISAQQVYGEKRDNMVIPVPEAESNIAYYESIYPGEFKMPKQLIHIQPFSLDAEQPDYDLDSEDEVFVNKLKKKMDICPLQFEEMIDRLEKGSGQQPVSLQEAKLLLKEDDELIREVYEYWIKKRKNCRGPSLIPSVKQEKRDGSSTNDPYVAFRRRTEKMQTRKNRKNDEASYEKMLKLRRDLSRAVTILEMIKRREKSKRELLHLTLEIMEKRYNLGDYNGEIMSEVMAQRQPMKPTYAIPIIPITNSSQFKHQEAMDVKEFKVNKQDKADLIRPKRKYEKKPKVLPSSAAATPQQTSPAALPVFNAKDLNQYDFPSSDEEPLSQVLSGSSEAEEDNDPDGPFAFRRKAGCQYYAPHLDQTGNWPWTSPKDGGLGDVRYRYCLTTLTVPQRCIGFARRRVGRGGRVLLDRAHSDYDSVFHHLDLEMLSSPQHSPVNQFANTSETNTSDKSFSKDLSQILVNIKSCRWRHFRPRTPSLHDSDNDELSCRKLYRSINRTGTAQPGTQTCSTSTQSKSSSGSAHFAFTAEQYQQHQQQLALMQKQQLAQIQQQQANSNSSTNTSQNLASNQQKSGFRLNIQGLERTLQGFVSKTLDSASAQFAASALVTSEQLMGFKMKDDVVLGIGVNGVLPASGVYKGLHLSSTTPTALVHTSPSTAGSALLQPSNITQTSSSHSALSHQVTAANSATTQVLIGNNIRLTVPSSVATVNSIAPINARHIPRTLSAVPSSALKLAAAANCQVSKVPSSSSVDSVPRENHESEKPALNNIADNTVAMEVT
UniProt Q9NPF5: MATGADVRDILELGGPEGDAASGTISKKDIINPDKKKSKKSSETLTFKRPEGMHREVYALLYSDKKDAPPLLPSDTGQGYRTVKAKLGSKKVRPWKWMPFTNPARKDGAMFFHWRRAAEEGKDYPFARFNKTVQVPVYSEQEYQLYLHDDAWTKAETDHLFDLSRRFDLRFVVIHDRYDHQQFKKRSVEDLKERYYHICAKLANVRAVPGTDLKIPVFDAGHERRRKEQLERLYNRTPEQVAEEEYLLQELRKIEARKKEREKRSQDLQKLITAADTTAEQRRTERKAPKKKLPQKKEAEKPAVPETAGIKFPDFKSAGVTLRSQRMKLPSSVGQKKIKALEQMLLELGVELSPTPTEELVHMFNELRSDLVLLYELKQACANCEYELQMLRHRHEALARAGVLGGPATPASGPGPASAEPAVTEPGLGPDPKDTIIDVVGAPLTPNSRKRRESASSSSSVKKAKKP

Assays:
[1] = target: pro-IL-1α-TurboID (human) (UniProt P01583); assay: proximity labelling
[2] = target: pro-IL-1α-TurboID (human) (UniProt P01583); assay: proximity labelling; remark: listed apart in the source

In the case of EP400 (from UniProt Q96L91 1-3159), the binding [1] is reported as “binds”.

UBR2 (from UniProt Q8IWV8 1-1755) was tested, and the binding [1] was “binds”.

For NCOA2 (from UniProt Q15596 1-1464), the binding [1] was “binds”.

For NCOA3 (from UniProt Q9Y6Q9 1-1424), the binding [1] was “binds”.

In the case of EPC1 (from UniProt Q9H2F5 1-836), the binding [1] is reported as “binds”.

For EP300 (from UniProt Q09472 1-2414), the binding [1] was “binds”.

For SUPT20H (from UniProt Q8NEM7 1-779), the binding [1] was “binds”.

In the case of DMAP1 (from UniProt Q9NPF5 1-467), the binding [1] is reported as “binds”.

B1: CRT2C (protein, UniProt Q53ET0 1-693)
chain: MATSGANGPGSATASASNPRKFSEKIALQKQRQAEETAAFEEVMMDIGSTRLQAQKLRLAYTRSSHYGGSLPNVNQIGSGLAEFQSPLHSPLDSSRSTRHHGLVERVQRDPRRMVSPLRRYTRHIDSSPYSPAYLSPPPESSWRRTMAWGNFPAEKGQLFRLPSALNRTSSDSALHTSVMNPSPQDTYPGPTPPSILPSRRGGILDGEMDPKVPAIEENLLDDKHLLKPWDAKKLSSSSSRPRSCEVPGINIFPSPDQPANVPVLPPAMNTGGSLPDLTNLHFPPPLPTPLDPEETAYPSLSGGNSTSNLTHTMTHLGISRGMGLGPGYDAPGLHSPLSHPSLQSSLSNPNLQASLSSPQPQLQGSHSHPSLPASSLARHVLPTTSLGHPSLSAPALSSSSSSSSTSSPVLGAPSYPASTPGASPHHRRVPLSPLSLLAGPADARRSQQQLPKQFSPTMSPTLSSITQGVPLDTSKLSTDQRLPPYPYSSPSLVLPTQPHTPKSLQQPGLPSQSCSVQSSGGQPPGRQSHYGTPYPPGPSGHGQQSYHRPMSDFNLGNLEQFSMESPSASLVLDPPGFSEGPGFLGGEGPMGGPQDPHTFNHQNLTHCSRHGSGPNIILTGDSSPGFSKEIAAALAGVPGFEVSAAGLELGLGLEDELRMEPLGLEGLNMLSDPCALLPDPAVEESFRSDRLQ
B1 was tested, and the binding [2] was “binds”.

B2: ZZZ3 (protein, UniProt Q8IYH5 1-903)
chain: MAASRSTRVTRSTVGLNGLDESFCGRTLRNRSIAHPEEISSNSQVRSRSPKKRPEPVPIQKGNNNGRTTDLKQQSTRESWVSPRKRGLSSSEKDNIERQAIENCERRQTEPVSPVLKRIKRCLRSEAPNSSEEDSPIKSDKESVEQRSTVVDNDADFQGTKRACRCLILDDCEKREIKKVNVSEEGPLNSAVVEEITGYLAVNGVDDSDSAVINCDDCQPDGNTKQNSIGSYVLQEKSVAENGDTDTQTSMFLDSRKEDSYIDHKVPCTDSQVQVKLEDHKIVTACLPVEHVNQLTTEPATGPFSETQSSLRDSEEEVDVVGDSSASKEQCKENTNNELDTSLESMPASGEPEPSPVLDCVSAQMMSLSEPQEHRYTLRTSPRRAAPTRGSPTKNSSPYRENGQFEENNLSPNETNATVSDNVSQSPTNPGEISQNEKGICCDSQNNGSEGVSKPPSEARLNIGHLPSAKESASQHITEEEDDDPDVYYFESDHVALKHNKDYQRLLQTIAVLEAQRSQAVQDLESLGRHQREALKNPIGFVEKLQKKADIGLPYPQRVVQLPEIVWDQYTHSLGNFEREFKNRKRHTRRVKLVFDKVGLPARPKSPLDPKKDGESLSYSMLPLSDGPEGSSSRPQMIRGRLCDDTKPETFNQLWTVEEQKKLEQLLIKYPPEEVESRRWQKIADELGNRTAKQVASRVQKYFIKLTKAGIPVPGRTPNLYIYSKKSSTSRRQHPLNKHLFKPSTFMTSHEPPVYMDEDDDRSCFHSHMNTAVEDASDDESIPIMYRNLPEYKELLQFKKLKKQKLQQMQAESGFVQHVGFKCDNCGIEPIQGVRWHCQDCPPEMSLDFCDSCSDCLHETDIHKEDHQLEPIYRSETFLDRDYCVSQGTSYNYLDPNYFPANR
In the case of B2, the binding [2] is reported as “binds”.
